Experimental data published in patent US20220257578A1, “COMPOSITION AND METHOD FOR TREATING CANDIDA AURIS INFECTION” (Appili Therapeutics Inc., priority 2019, published 2022).
Some entries share one result that the patent states for a list of compounds.

System: C. auris (DI 17-46)
Experiment: Neutropenic mice with invasive candidiasis secondary to C. auris (survival arm and fungal burden arm)
Format: in vivo
Settings: caspofungin 10 mg/kg IP once daily for 7 days; followed to day 21; control 5 days
Procedure: FIG. 1 depicts survival curves in mice inoculated intravenously with C. auris and treated with vehicle control, fluconazole 20 mg/kg PO QD, or caspofungin 10 mg/kg IP QD (A) or T-2307 at doses of 0.75 mg/kg, 1.5 mg/kg, or 3 mg/kg SC QD (B). Treatment started one day post-inoculation and continued for 7 days. Mice were then followed off therapy until day 21 post-inoculation (14 days after therapy stopped). Black square—vehicle control; white circle—fluconazole 20 mg/kg; black circle—caspofungin 10 mg/kg; inverted gray triangle T-2307 0.75 mg/kg; gray rectangle—T-2307 1.5 mg/kg; gray triangle—T-2307 3 mg/kg. N=10 mice per group.
(§1) FIG. 2 depicts graphs showing kidney (A) and brain (B) fungal burden (CFU/g) in mice with invasive candidiasis secondary to C. auris in the fungal burden arm. Colony-forming units were measured on day 8 post-inoculation after 7 days of therapy. N=10 mice in the vehicle control and treatment groups; N=5 mice in the 24-hour control group.
as §1, with “FIG. 3” for “FIG. 2”, “the survival” for “the fungal burden”, “group. […]” for “group.”

CC[C@H](C)C[C@H](C)CCCCCCCCC(=O)N[C@H]1C[C@@H](O)[C@@H](NCCN)NC(=O)[C@@H]2[C@@H](O)CCN2C(=O)[C@H]([C@H](O)CCN)NC(=O)[C@H]([C@H](O)[C@@H](O)c2ccc(O)cc2)NC(=O)[C@@H]2C[C@@H](O)CN2C(=O)[C@H]([C@@H](C)O)NC1=O [Caspofungin, caspofungin]
median survival: > 21 days
